From patent publication US9282742B2, “Insecticidal compounds” (Syngenta Limited, priority 2008, dated 2016)
Some entries share one result that the patent states for a list of compounds.

Experiments:
Assay type in all cases: in vivo
Plutella xylostella = Plutella xylostella (diamond back moth) artificial diet test; conditions: application rate of 200 ppm (concentration in well 18 ppm); L2 larvae; larval mortality and growth regulation after 6 days
Heliothis virescens = Heliothis virescens (tobacco budworm) egg test on artificial diet; conditions: application rate of 200 ppm (concentration in well 18 ppm); eggs 0-24 h old; egg mortality, larval mortality, growth regulation after 4 days
Tetranychus urticae = Tetranychus urticae (two-spotted spider mite) bean leaf disc spray test; conditions: application rate of 200 ppm; mite populations of mixed ages; egg, larval and adult mortality 8 days later
Spodoptera littoralis = Spodoptera littoralis (Egyptian cotton leafworm) cotton leaf disc spray test; conditions: application rate of 200 ppm; L1 larvae; mortality, feeding behavior, growth regulation 3 days after treatment
Thrips tabaci = Thrips tabaci (onion thrips) sunflower leaf disc spray test; conditions: application rate of 200 ppm; population of mixed ages; mortality after 7 days
Diabrotica balteata = Diabrotica balteata (corn root worm) artificial diet test; conditions: application rate of 200 ppm (concentration in well 18 ppm); L2 larvae; larval mortality and growth regulation after 5 days

Cc1cc(C2=NOC(c3cc(Cl)cc(Cl)c3)(C(F)(F)F)C2Br)ccc1C(=O)NCc1nc2ccccc2[nH]1 (stereo not drawn) [Compound A5]
at least 80%: control of Plutella xylostella (Plutella xylostella) | control of Heliothis virescens (Heliothis virescens) | control of Tetranychus urticae (Tetranychus urticae) | control of Spodoptera littoralis (Spodoptera littoralis) | control of Thrips tabaci (Thrips tabaci) | control of Diabrotica balteata (Diabrotica balteata)

Cc1cc(C2=NOC(c3cc(Cl)cc(Cl)c3)(C(F)(F)F)C2Br)ccc1C(=O)NC1C[S+]([O-])C1 (stereo not drawn) [Compound A7]
at least 80%: control of Plutella xylostella (Plutella xylostella) | control of Heliothis virescens (Heliothis virescens) | control of Tetranychus urticae (Tetranychus urticae) | control of Spodoptera littoralis (Spodoptera littoralis) | control of Thrips tabaci (Thrips tabaci) | control of Diabrotica balteata (Diabrotica balteata)
